Reference: article PMC4740771, “Nucleotide-dependent assembly of the peroxisomal receptor export complex” (Scientific Reports, 2016)
Numbering of substitutions follows the chain as printed. In names and notes the source's numbering stands. Results are given in words; binding and its absence hold for the method and conditions named. In cells and extracts the contact can be indirect. Some entries that bind do so weakly or less than the wild type. Blank lines part the entries; values can stand above or below the binder they belong to.

What was measured:
Pex6pTPA (S. cerevisiae) = biological target: T1, Pex6pTPA (S. cerevisiae) (UniProt P33760); experiment: co-IP; Pex1pTPA (Δpex6 cells with plasmid Pex6p or Pex6pWB) or Pex6pTPA (Δpex1 cells with plasmid Pex1p or Pex1pWB) isolated from 1% digitonin-solubilised total membranes on IgG-Sepharose, TEV protease eluate, immunoblot; 5 mM ATP
T1 sequence: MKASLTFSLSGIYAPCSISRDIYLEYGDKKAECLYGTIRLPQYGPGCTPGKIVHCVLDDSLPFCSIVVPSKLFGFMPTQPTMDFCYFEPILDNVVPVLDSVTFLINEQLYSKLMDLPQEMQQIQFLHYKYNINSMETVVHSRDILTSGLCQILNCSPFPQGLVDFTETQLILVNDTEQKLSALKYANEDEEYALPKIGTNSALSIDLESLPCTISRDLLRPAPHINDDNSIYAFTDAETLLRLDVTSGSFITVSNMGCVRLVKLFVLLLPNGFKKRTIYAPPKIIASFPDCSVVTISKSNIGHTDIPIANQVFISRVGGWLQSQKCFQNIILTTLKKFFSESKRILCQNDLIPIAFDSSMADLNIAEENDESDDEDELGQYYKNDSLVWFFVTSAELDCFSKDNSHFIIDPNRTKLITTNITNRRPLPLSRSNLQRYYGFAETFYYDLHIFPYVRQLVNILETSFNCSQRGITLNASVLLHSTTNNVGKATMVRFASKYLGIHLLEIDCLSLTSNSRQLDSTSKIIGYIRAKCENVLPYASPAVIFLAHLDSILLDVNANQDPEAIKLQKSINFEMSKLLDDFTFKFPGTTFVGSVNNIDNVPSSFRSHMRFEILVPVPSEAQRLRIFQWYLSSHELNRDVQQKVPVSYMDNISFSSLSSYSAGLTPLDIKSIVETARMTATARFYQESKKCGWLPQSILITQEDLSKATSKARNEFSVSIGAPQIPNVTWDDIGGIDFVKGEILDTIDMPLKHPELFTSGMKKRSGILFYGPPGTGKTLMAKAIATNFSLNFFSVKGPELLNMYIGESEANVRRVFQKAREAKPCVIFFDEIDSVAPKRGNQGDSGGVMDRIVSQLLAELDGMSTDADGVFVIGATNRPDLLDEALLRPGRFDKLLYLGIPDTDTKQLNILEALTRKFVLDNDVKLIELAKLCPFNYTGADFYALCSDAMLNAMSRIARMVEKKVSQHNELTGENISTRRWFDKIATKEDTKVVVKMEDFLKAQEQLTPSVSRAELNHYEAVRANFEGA

Pex1pTPA (S. cerevisiae) = biological target: T2, Pex1pTPA (S. cerevisiae) (UniProt P24004); experiment: as above
T2 sequence: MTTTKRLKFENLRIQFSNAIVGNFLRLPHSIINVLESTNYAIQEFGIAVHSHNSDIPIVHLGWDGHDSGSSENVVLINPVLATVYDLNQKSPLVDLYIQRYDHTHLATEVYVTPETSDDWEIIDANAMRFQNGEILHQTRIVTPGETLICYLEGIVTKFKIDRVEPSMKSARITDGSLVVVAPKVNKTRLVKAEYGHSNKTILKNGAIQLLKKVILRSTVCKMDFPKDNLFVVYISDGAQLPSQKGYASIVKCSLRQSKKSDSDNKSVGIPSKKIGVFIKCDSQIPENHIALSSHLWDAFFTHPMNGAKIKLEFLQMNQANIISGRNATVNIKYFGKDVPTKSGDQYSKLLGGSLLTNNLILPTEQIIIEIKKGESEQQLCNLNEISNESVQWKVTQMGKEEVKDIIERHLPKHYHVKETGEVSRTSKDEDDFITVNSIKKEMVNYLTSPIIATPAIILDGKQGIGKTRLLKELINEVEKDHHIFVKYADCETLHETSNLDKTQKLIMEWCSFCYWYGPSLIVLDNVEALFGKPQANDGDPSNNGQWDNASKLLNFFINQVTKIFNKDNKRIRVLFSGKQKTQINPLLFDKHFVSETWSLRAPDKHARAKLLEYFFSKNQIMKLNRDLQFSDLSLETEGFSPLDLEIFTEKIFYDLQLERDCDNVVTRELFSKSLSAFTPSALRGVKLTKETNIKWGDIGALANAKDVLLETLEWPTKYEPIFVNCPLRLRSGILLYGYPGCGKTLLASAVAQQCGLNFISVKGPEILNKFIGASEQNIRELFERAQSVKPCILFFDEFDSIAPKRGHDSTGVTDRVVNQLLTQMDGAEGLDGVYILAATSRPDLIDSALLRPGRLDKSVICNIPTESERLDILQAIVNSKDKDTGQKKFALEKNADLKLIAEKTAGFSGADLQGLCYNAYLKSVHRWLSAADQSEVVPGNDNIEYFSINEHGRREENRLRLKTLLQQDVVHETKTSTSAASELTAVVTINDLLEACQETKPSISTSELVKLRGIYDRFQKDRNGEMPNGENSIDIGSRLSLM

[1] = biological target: T3, Pex15pTPA (S. cerevisiae) (UniProt Q08215); experiment: co-IP; Pex15pTPA isolated from 1% digitonin-solubilised total membranes on IgG-Sepharose, TEV protease eluate, immunoblot; 5 mM ATP
T3 sequence: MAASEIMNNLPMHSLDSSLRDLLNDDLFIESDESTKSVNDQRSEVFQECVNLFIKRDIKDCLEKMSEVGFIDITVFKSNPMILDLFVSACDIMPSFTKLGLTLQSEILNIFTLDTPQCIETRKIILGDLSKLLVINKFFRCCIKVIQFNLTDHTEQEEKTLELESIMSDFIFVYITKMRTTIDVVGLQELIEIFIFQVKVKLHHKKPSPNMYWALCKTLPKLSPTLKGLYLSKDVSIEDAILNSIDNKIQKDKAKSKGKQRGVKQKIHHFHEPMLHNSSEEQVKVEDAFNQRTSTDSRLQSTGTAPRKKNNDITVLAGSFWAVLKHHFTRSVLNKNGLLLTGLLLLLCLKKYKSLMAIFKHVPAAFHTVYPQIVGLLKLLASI

[2] = biological target: T4, Pex15p (endogenous, yeast membranes) (S. cerevisiae (endogenous in yeast cells)) (UniProt Q08215); experiment: co-IP; Pex1pTPA (Δpex6 cells with plasmid Pex6p or Pex6pWB) or Pex6pTPA (Δpex1 cells with plasmid Pex1p or Pex1pWB) isolated from 1% digitonin-solubilised total membranes on IgG-Sepharose, TEV protease eluate, immunoblot; 5 mM ATP
T4 sequence: T3 sequence

binding (Pex6pTPA (S. cerevisiae)): binds
binding (Pex1pTPA (S. cerevisiae)): binds
B1: Pex17p (endogenous, yeast membranes) (protein, UniProt P40155 1-199)
chain: MTSINSFPRNIDWPSNIGIKKIEGTNPTVNAIKGLLYNGGSIYAFLYFVIAMFVEPTLQKQYQQRNDFSLFVLLRLRRIIAQLQKRLVMTPVSSLGFNEQNNFVERSTQTSDDNIIREDNSHWAEMIYQLQNMKQELQYFNRSSGQPSESIDDFVFQIKMVTDQVELTDRSRAFSNKSRNIIQGIREIKGWFVNGQVPR

binding (Pex1pTPA (S. cerevisiae)): binds
binding [2]: binds
B6: HisPex6p(E832Q) (natural protein, S. cerevisiae, UniProt P33760 1-1030, looked up)
chain: T1 sequence with E832Q
notes: Pex6p of yeast with the Walker B mutation of the D2 domain; also called Pex6pWB; PEX6WB^E832Q; source: E. coli Tuner (DE3), co-purified with HisPex1pGST; not shown: His6, N-terminal, kept

Continued, binder first:

B2: Pex13p (endogenous, yeast membranes) (protein, UniProt P80667 1-386)
chain: MSSTAVPRPKPWETSASLEEPQRNAQSLSAMMTSNQQDSRPTEESNNSNSASESAPEVLPRPAALNSSGTYGESNTIPGIYGNSNYGIPYDNNPYSMNSIYGNSIGRYGYGGSYYGNNYGSFYGGGYGAGAGYGMNNGSGLGESTKATFQLIESLIGAVTGFAQMLESTYMATHNSFFTMISVAEQFGNLKEMLGSFFGIFAIMKFLKKILYRATKGRLGIPPKNFAESEGSKNKLIEDFQKFNDSGTINSNEKATRRKISWKPLLFFLMAVFGFPYLLNKFITKLQTSGTIRASQGNGSEPIDPSKLEFARALYDFVPENPEMEVALKKGDLMAILSKKDPLGRDSDWWKVRTKNGNIGYIPYNYIEIIKRRKKIEHVDDETRTH
binding (Pex6pTPA (S. cerevisiae)): binds
binding (Pex1pTPA (S. cerevisiae)): binds

B3: Pex14p (endogenous, yeast membranes) (protein, UniProt P53112 1-341)
chain: MSDVVSKDRKALFDSAVSFLKDESIKDAPLLKKIEFLKSKGLTEKEIEIAMKEPKKDGIVGDEVSKKIGSTENRASQDMYLYEAMPPTLPHRDWKDYFVMATATAGLLYGAYEVTRRYVIPNILPEAKSKLEGDKKEIDDQFSKIDTVLNAIEAEQAEFRKKESETLKELSDTIAELKQALVQTTRSREKIEDEFRIVKLEVVNMQNTIDKFVSDNDGMQELNNIQKEMESLKSLMNNRMESGNAQDNRLFSISPNGIPGIDTIPSASEILAKMGMQEESDKEKENGSDANKDDNAVPAWKKAREQTIDSNASIPEWQKNTAANEISVPDWQNGQVEDSIP
binding (Pex6pTPA (S. cerevisiae)): binds
binding (Pex1pTPA (S. cerevisiae)): binds

B4: Pex6p (endogenous, yeast membranes) (protein, UniProt P33760 1-1030)
chain: T1 sequence
binding [1]: binds

B5: Pex6p expressed from pRS416-Pex6p in Δpex6Pex1pTPA yeast (protein, UniProt P33760 1-1030)
chain: T1 sequence
binding (Pex1pTPA (S. cerevisiae)): binds
binding [2]: binds
